Measured values taken from the supplement of paper PMC6411743.
± gives the standard deviation of the averaged measurements. The entries are a selection whose mix differs from that of the whole data set.

Chains of the proteins cited; added tags and fusions are not shown. Lines headed by an entry give the natural chain unless they say otherwise; changes in a name come on top.
UniProt Q6PK04: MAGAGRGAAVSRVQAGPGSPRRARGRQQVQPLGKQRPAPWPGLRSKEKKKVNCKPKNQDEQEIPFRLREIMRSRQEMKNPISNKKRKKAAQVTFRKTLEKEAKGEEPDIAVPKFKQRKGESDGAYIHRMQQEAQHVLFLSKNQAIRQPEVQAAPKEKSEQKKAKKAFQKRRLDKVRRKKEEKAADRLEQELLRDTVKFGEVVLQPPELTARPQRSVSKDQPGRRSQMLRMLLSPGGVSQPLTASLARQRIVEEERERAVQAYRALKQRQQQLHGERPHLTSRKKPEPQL
UniProt P67812: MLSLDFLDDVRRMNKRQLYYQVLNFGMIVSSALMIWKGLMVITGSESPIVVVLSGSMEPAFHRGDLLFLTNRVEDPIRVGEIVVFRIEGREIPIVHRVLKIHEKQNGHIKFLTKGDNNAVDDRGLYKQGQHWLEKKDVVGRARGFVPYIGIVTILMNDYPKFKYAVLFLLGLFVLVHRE
UniProt Q9Y296, whole entry: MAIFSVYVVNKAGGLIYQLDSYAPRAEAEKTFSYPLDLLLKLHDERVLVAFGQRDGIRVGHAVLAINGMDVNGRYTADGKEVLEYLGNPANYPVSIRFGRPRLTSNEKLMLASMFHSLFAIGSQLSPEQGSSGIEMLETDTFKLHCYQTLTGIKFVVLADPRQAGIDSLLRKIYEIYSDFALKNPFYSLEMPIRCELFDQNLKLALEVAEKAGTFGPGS
UniProt Q6PIF6, whole entry: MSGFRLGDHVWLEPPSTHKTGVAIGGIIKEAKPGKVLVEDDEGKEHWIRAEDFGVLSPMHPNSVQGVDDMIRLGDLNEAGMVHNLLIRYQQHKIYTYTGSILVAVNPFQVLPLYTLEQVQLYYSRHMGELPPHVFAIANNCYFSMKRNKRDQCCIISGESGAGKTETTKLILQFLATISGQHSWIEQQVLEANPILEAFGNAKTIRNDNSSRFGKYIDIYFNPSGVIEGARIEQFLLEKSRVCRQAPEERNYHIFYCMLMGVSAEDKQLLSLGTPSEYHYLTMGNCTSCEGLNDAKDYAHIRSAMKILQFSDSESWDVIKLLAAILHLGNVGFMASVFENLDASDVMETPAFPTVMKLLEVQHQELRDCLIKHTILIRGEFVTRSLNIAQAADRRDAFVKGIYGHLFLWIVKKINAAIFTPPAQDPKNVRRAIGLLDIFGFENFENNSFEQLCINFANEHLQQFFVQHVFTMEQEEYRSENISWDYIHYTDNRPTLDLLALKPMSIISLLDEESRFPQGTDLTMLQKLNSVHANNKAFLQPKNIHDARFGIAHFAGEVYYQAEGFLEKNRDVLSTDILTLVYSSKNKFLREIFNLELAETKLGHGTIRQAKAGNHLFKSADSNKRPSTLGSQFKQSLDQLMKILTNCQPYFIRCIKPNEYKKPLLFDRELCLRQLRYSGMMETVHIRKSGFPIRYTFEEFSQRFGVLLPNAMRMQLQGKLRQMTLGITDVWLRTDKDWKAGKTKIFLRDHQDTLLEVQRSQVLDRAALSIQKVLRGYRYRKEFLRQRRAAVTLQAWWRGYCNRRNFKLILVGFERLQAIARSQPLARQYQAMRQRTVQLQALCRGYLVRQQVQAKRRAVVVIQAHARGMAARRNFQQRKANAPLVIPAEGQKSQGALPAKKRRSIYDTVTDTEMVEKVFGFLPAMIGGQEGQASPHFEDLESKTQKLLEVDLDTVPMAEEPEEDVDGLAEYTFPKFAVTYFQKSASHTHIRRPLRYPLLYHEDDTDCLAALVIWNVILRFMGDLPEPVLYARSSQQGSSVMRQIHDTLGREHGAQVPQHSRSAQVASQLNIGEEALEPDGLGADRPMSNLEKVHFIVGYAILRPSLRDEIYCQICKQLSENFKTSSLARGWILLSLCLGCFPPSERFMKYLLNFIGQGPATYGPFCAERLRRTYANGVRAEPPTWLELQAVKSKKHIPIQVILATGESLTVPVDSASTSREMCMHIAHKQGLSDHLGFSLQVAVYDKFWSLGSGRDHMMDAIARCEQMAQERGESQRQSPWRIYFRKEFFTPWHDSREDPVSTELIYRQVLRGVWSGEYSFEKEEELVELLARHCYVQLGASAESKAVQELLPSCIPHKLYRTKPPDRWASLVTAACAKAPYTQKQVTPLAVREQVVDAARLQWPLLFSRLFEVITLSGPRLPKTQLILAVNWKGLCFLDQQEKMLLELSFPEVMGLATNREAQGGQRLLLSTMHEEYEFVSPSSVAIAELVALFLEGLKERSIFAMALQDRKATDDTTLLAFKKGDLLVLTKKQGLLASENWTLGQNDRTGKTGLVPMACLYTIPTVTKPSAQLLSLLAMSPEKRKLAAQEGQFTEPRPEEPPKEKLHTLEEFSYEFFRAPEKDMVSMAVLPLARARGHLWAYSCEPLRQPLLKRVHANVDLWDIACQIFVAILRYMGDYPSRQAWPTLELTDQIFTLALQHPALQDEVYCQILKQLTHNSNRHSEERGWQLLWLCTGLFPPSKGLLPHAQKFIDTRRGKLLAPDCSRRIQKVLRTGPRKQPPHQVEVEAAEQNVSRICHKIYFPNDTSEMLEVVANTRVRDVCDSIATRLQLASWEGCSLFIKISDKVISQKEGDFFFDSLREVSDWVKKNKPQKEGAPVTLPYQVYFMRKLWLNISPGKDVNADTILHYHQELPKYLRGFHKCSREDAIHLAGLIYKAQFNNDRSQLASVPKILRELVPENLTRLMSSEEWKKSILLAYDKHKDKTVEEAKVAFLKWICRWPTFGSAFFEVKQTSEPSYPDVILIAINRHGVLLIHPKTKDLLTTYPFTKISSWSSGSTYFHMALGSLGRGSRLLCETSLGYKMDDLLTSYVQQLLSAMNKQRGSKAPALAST
UniProt Q9H7P9: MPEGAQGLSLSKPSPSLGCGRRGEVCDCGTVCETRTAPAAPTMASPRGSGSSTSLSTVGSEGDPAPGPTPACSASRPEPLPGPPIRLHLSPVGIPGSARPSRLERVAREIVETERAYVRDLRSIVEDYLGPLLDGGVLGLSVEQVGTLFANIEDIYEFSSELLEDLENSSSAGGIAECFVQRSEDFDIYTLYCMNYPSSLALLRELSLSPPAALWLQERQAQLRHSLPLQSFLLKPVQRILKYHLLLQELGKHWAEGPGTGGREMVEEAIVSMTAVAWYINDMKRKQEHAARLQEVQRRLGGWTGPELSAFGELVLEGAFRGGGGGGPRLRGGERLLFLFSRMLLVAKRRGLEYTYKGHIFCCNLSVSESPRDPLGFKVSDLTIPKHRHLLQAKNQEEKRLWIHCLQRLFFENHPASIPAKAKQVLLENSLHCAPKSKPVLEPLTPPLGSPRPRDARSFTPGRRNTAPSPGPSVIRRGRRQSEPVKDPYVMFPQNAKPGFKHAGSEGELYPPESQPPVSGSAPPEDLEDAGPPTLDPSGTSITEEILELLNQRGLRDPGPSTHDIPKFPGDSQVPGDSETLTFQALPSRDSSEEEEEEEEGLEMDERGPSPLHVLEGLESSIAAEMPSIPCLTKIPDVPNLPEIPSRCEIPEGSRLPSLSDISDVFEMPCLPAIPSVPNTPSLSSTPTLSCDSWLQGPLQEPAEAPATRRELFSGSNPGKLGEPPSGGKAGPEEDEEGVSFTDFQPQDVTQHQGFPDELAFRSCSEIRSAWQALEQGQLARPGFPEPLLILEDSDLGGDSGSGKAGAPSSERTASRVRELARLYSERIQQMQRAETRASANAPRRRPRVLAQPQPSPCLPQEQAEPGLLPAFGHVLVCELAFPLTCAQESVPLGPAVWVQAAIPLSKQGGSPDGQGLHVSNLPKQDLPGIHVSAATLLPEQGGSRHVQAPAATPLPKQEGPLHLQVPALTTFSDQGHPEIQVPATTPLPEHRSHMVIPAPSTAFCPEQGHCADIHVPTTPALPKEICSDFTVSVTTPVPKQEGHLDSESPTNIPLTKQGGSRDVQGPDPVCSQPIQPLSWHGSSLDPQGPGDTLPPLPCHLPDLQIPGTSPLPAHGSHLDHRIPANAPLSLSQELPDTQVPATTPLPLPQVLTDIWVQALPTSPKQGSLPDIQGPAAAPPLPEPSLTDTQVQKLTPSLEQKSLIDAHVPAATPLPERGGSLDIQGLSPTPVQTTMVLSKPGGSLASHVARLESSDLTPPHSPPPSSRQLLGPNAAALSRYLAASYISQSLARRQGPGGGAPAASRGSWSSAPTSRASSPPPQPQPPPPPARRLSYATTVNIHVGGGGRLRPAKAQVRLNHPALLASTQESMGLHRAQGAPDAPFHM
UniProt P29017: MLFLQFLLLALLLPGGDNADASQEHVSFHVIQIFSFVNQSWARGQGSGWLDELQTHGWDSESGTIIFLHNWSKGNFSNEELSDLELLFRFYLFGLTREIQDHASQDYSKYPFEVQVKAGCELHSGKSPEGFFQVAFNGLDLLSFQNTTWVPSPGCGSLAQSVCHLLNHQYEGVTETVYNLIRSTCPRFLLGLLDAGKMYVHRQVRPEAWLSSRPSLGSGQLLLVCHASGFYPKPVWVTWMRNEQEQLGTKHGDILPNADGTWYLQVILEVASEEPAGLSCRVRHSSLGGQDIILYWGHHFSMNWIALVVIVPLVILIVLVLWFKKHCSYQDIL
UniProt O14893: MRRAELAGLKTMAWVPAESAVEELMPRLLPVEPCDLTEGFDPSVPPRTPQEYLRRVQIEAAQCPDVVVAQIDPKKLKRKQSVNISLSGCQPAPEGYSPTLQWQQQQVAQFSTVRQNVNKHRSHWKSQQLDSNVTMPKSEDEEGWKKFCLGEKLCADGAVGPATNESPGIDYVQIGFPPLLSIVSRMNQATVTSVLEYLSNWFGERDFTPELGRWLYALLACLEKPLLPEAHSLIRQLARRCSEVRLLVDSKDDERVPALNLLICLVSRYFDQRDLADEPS
UniProt P07942: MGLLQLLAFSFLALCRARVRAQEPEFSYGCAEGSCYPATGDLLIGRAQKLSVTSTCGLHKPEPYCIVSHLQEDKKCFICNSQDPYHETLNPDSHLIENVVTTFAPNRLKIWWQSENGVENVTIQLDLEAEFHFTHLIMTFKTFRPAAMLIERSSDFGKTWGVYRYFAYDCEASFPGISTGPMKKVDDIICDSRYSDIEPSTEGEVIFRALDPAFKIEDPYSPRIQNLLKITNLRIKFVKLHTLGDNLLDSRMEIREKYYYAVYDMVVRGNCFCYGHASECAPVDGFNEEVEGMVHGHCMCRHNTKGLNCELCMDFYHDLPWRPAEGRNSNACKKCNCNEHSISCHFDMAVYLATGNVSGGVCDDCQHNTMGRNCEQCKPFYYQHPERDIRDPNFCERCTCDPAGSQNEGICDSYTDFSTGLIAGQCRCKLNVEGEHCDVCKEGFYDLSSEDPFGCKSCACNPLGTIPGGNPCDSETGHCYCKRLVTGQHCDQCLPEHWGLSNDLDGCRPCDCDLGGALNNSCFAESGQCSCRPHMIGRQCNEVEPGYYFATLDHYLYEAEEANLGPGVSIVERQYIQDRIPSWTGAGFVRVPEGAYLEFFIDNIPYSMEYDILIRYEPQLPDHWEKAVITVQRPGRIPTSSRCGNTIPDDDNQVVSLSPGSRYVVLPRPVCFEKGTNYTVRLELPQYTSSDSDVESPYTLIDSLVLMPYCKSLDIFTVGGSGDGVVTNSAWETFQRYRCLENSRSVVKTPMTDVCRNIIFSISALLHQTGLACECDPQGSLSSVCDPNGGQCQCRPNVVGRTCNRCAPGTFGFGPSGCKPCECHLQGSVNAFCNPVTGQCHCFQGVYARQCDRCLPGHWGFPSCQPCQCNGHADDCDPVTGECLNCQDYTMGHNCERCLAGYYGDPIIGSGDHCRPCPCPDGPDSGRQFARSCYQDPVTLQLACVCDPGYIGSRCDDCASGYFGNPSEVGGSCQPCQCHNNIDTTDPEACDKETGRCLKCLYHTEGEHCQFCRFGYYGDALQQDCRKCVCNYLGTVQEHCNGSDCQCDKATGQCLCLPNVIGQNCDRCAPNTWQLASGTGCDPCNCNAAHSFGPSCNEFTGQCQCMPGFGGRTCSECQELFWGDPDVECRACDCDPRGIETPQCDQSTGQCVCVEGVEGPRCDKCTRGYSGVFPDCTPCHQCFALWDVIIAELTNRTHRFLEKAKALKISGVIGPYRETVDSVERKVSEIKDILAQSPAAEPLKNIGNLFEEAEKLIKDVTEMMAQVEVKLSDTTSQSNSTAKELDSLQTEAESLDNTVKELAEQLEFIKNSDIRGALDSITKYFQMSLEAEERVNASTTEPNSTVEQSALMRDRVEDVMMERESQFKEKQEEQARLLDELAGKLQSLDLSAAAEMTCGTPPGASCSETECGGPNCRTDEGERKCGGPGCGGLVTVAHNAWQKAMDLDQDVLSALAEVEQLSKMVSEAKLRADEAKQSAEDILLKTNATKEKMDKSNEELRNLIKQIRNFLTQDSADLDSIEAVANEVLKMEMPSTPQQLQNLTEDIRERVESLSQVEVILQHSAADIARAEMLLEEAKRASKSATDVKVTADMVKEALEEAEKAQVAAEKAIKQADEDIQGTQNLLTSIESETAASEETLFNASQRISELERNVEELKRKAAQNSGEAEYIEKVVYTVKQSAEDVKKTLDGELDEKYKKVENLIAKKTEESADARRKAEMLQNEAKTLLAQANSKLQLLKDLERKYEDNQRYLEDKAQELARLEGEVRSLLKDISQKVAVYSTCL

Compound: Nc1ncnc2c1ncn2[C@@H]1O[C@H](COP(=O)(O)OP(=O)(O)NP(=O)(O)O)[C@@H](O)[C@H]1O [adenylyl imidodiphosphate]
Assay: NP40-soluble protein abundance relative to vehicle (solubility fold change) (ratio); higher = more soluble protein in presence of AMP-PNP
Procedure, shortened: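 Crude Jurkat lysate, prepared by Dounce homogenisation, was exposed to eight concentrations from 0.1 to 10 mM for 10 min at room temperature and then 3 min at 37 °C. Solubilisation used 0.8% NP40 with benzonase for 60 min at 4 °C, followed by ultracentrifugation and TMT labelling of the supernatant for LC-MS/MS. After vsn normalisation of intensities, each value is the fold change against the detergent-processed vehicle within each replicate, across three independent experiments.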

Target | NP40-soluble protein abundance (concentration: 1mM) | NP40-soluble protein abundance (concentration: 2mM) | NP40-soluble protein abundance (concentration: 4mM) | NP40-soluble protein abundance (concentration: 6mM) | NP40-soluble protein abundance (concentration: 8mM) | NP40-soluble protein abundance (concentration: 10mM)
I3L397 and related entries (UniProt P63241) | 0.835 ± 0.04 | 0.825 ± 0.056 | 0.832 ± 0.069 | 0.835 ± 0.011 | 0.813 ± 0.07 | 0.72 ± 0.065
H7BYJ3 and related entries (UniProt O14578) | 1.027 ± 0.0099 | 1.02 ± 0.0061 | 1.011 ± 0.0035 | 0.977 ± 0.038 | 0.957 ± 0.012 | 0.961 ± 0.021
H3BRN4 and related entries (UniProt P80404) | 0.997 ± 0.023 | 0.943 ± 0.085 | 0.993 ± 0.023 | 0.991 ± 0.031 | 1.02 ± 0.017 | 0.985 ± 0.031
J3KPS0 and related entries (UniProt Q9NXW2) | 1 ± 0.03 | 0.998 ± 0.036 | 0.978 ± 0.021 | 0.957 ± 0.012 | 0.941 ± 0.015 | 0.944 ± 0.021
G5E9L0 and related entries (UniProt Q8N6H7) | 1.02 ± 0.011 | 1.03 ± 0.046 | 0.997 ± 0.033 | 0.973 ± 0.018 | 0.948 ± 0.023 | 0.972 ± 0.029
I3L0U5 and related entries (UniProt Q6PK04) | 0.986 ± 0.019 | 0.98 ± 0.016 | 1.003 ± 0.0058 | 1.0016 ± 0.00038 | 1.03 ± 0.021 | 1.01 ± 0.032
H3BTR4 and related entries (UniProt Q96BT3) | 1.05 ± 0.043 | 1.05 ± 0.054 | 1.05 ± 0.046 | 1.02 ± 0.031 | 1.04 ± 0.051 | 1.08 ± 0.079
J3KR72 and related entries (UniProt P49848) | 1.04 ± 0.052 | 1.07 ± 0.019 | 1.05 ± 0.035 | 1.07 ± 0.097 | 1.08 ± 0.098 | 1.13 ± 0.096
H0YKX3 and related entries (UniProt Q15004) | 0.987 ± 0.021 | 0.984 ± 0.033 | 0.978 ± 0.018 | 0.981 ± 0.021 | 0.965 ± 0.0029 | 0.98 ± 0.019
J3QSH4 and related entries (UniProt Q14119) | 0.977 ± 0.07 | 1.01 ± 0.1 | 0.974 ± 0.079 | 1.04 ± 0.1 | 0.999 ± 0.092 | 1.07 ± 0.077
I3L1T3 and related entries (UniProt Q9GZP9) | 1.01 ± 0.029 | 0.939 ± 0.083 | 0.995 ± 0.026 | 0.985 ± 0.012 | 0.988 ± 0.018 | 0.949 ± 0.04
H0YNG3 and related entries (UniProt P67812) | 0.988 ± 0.054 | 0.957 ± 0.057 | 0.978 ± 0.042 | 0.944 ± 0.026 | 0.965 ± 0.022 | 0.986 ± 0.068
J3KP27 and related entries (UniProt Q9Y296) | 0.994 ± 0.015 | 0.96 ± 0.06 | 0.972 ± 0.011 | 0.959 ± 0.034 | 0.986 ± 0.031 | 0.906 ± 0.032
H3BRL0 and related entries (UniProt Q9BXC9) | 0.991 ± 0.028 | 0.98 ± 0.033 | 0.9819 ± 0.0082 | 0.966 ± 0.01 | 0.955 ± 0.024 | 0.949 ± 0.037
H0YN33 and related entries (UniProt Q9BW66) | 1.11 ± 0.034 | 1.13 ± 0.044 | 1.12 ± 0.018 | 1.17 ± 0.027 | 1.21 ± 0.059 | 1.22 ± 0.062
H7C1I0 and related entries (UniProt Q96K37) | 1.02 ± 0.041 | 1.03 ± 0.017 | 1.02 ± 0.022 | 1.02 ± 0.039 | 1.05 ± 0.054 | 1.07 ± 0.056
G3XAN4 and related entries (UniProt Q15629) | 1.03 ± 0.017 | 1.05 ± 0.079 | 1.02 ± 0.086 | 1.05 ± 0.058 | 1.06 ± 0.068 | 1.05 ± 0.082
I3L3C2 and related entries (UniProt Q96MX0) | 0.926 ± 0.018 | 0.955 ± 0.056 | 0.937 ± 0.046 | 1 ± 0.072 | 0.978 ± 0.1 | 0.941 ± 0.099
H3BM14 and related entries (UniProt Q9Y5A7) | 0.985 ± 0.013 | 0.993 ± 0.012 | 0.986 ± 0.03 | 1.01 ± 0.024 | 0.98 ± 0.025 | 0.989 ± 0.028
J3KTD6 and related entries (UniProt Q96GD4) | 1.022 ± 0.003 | 1.016 ± 0.01 | 1 ± 0.011 | 1.05 ± 0.028 | 1.07 ± 0.065 | 1.08 ± 0.11
K4DI93 and related entries (UniProt Q13620) | 0.991 ± 0.011 | 0.936 ± 0.05 | 0.9972 ± 0.0076 | 0.992 ± 0.028 | 1 ± 0.017 | 0.995 ± 0.024
H7BXK9 and related entries (UniProt Q9NP58) | 0.943 ± 0.026 | 0.946 ± 0.027 | 0.9576 ± 0.008 | 1.01 ± 0.012 | 0.9882 ± 0.0095 | 1.01 ± 0.019
H3BSD9 and related entries (UniProt Q6PIF6) | 0.992 ± 0.033 | 0.921 ± 0.091 | 1 ± 0.046 | 0.945 ± 0.029 | 0.978 ± 0.011 | 0.931 ± 0.045
H7BXC7 and related entries (UniProt Q9H7P9) | 1.034 ± 0.0048 | 1.03 ± 0.049 | 1.02 ± 0.024 | 0.968 ± 0.012 | 0.978 ± 0.015 | 1 ± 0.032
H0Y6Y6 and related entries (UniProt P29017) | 0.995 ± 0.053 | 1.03 ± 0.077 | 0.972 ± 0.063 | 1.07 ± 0.046 | 1.03 ± 0.056 | 1.03 ± 0.087
G3XAI9 and related entries (UniProt Q5BKY9) | 1.01 ± 0.018 | 1.1 ± 0.14 | 1 ± 0.043 | 1.1 ± 0.026 | 1.06 ± 0.037 | 1.09 ± 0.054
J3KPP4 and related entries (UniProt O95232) | 1.02 ± 0.036 | 1.06 ± 0.058 | 1.06 ± 0.019 | 1.22 ± 0.015 | 1.3 ± 0.039 | 1.51 ± 0.049
H0YEL0 and related entries (UniProt O14893) | 0.965 ± 0.047 | 0.994 ± 0.017 | 0.996 ± 0.059 | 0.969 ± 0.071 | 0.967 ± 0.074 | 0.974 ± 0.065
J3KPF0 (UniProt Q9Y4D8) | 1.02 ± 0.058 | 1.01 ± 0.054 | 1.01 ± 0.038 | 0.984 ± 0.057 | 0.982 ± 0.076 | 0.989 ± 0.088
G3XAI2 and related entries (UniProt P07942) | 1.01 ± 0.029 | 1.02 ± 0.068 | 1.02 ± 0.029 | 1.008 ± 0.0061 | 0.988 ± 0.033 | 1.028 ± 0.0095

An excerpt of these results, as comma-separated lines:
Target,NP40-soluble protein abundance (concentration: 1mM),NP40-soluble protein abundance (concentration: 2mM),NP40-soluble protein abundance (concentration: 4mM),NP40-soluble protein abundance (concentration: 6mM),NP40-soluble protein abundance (concentration: 8mM),NP40-soluble protein abundance (concentration: 10mM)
I3L3C2 and related entries (UniProt Q96MX0),0.926 ± 0.018,0.955 ± 0.056,0.937 ± 0.046,1 ± 0.072,0.978 ± 0.1,0.941 ± 0.099
J3KTD6 and related entries (UniProt Q96GD4),1.022 ± 0.003,1.016 ± 0.01,1 ± 0.011,1.05 ± 0.028,1.07 ± 0.065,1.08 ± 0.11
